The text below walks through data of publication PMC11746154.

The series concerns Spo11 + Rec102 + Rec104 + Ski8. In words: EMSA. Conditions: 5 mM MgCl2, quantification only in figure/source data; 5' phosphate (32P, T4 PNK); EMSA: 25 mM Tris-HCl pH 7.5, 7.5% glycerol, 100 mM NaCl, 2 mM DTT, 5 mM MgCl2, 1 mg/ml BSA, 0.1 nM DNA, 30 min 30 C; recombinant protein; label: 5'-32P; folded or branched DNA.

For at least one entry, the source does not settle the construct or the ends of the probe. At least one verdict was read from the data and is not stated in words by the source.

Regarding “TAGCAATGTAATCGTCTATGACGTTAACGTCATAGACGATTACATTGC [hairpin DNA, 32P-labeled (EMSA)]”, the binding result is “binds”.
